Measured values: the supplement of paper PMC12067093, “Discovery and optimisation of a covalent ligand for TRIM25 and its application to targeted protein ubiquitination” (Chemical Science, 2025)
Some of the results follow.

The chains behind the UniProt entries cited, without tags or fusion partners. Where a name states a change or a piece, a line headed by the entry shows the natural chain unless it says otherwise.
UniProt P05556, whole entry, looked up: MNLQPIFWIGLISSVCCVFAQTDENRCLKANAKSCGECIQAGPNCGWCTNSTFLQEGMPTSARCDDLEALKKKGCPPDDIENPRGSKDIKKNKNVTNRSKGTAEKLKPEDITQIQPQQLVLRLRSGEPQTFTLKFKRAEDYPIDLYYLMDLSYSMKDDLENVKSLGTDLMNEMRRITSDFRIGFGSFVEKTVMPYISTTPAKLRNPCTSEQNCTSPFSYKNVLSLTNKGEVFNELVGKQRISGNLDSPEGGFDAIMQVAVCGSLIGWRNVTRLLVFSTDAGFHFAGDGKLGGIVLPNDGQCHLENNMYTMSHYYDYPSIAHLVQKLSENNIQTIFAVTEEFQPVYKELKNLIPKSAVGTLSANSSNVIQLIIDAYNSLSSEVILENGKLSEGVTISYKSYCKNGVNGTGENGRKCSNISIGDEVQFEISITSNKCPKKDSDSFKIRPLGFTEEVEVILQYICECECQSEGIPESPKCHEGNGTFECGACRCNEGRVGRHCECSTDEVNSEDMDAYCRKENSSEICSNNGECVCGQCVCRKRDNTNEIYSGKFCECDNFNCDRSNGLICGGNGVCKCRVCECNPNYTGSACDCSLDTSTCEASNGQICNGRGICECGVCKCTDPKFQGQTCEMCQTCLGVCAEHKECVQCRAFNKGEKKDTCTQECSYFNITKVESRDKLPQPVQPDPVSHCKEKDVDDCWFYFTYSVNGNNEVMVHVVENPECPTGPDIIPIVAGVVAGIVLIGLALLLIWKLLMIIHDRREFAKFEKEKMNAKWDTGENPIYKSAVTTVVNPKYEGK
UniProt Q9NVM9, whole entry, looked up: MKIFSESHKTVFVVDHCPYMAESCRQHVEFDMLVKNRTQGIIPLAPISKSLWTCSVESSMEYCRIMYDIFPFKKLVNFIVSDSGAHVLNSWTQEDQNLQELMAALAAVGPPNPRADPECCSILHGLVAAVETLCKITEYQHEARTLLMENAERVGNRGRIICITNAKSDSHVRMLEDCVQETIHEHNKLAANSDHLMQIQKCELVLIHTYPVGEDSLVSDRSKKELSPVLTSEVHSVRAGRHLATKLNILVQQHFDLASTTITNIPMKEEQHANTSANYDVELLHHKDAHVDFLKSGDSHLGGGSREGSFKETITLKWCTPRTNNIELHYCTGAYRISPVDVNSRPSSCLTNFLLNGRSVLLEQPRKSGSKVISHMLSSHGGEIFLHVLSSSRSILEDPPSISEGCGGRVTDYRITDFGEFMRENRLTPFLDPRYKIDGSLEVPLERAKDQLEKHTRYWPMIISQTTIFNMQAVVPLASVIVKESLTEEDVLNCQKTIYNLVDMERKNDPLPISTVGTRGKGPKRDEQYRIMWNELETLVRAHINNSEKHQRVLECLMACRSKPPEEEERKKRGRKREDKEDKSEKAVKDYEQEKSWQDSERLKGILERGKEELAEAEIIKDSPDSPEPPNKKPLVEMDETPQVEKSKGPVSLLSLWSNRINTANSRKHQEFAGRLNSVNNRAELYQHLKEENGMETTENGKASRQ
UniProt O95373, whole entry, looked up: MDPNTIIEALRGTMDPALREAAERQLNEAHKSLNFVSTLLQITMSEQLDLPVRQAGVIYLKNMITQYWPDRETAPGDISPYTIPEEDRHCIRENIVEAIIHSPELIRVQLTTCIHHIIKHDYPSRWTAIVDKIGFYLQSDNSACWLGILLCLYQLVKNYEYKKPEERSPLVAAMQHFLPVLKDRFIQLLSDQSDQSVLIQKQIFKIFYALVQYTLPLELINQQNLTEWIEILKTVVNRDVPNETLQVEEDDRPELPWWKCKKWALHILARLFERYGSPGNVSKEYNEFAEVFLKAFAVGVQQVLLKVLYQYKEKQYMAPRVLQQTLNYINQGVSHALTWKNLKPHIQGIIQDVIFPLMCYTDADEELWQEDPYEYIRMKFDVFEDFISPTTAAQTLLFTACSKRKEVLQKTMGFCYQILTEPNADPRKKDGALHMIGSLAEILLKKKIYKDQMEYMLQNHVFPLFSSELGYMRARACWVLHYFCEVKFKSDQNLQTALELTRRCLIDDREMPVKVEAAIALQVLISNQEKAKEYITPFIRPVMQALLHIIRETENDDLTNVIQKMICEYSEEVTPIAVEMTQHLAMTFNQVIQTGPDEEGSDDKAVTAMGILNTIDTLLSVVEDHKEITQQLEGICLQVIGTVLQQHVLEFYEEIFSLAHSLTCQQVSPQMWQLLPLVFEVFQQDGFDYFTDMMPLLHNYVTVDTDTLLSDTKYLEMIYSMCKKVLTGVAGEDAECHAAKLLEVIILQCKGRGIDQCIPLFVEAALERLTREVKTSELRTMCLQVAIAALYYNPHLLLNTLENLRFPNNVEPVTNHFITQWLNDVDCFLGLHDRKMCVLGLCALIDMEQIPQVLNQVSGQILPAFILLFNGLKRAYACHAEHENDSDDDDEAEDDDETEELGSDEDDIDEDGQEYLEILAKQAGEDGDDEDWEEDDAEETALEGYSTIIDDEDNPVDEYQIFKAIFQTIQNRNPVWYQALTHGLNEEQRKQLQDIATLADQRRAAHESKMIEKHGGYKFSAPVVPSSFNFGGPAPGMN
UniProt Q8N201, whole entry, looked up: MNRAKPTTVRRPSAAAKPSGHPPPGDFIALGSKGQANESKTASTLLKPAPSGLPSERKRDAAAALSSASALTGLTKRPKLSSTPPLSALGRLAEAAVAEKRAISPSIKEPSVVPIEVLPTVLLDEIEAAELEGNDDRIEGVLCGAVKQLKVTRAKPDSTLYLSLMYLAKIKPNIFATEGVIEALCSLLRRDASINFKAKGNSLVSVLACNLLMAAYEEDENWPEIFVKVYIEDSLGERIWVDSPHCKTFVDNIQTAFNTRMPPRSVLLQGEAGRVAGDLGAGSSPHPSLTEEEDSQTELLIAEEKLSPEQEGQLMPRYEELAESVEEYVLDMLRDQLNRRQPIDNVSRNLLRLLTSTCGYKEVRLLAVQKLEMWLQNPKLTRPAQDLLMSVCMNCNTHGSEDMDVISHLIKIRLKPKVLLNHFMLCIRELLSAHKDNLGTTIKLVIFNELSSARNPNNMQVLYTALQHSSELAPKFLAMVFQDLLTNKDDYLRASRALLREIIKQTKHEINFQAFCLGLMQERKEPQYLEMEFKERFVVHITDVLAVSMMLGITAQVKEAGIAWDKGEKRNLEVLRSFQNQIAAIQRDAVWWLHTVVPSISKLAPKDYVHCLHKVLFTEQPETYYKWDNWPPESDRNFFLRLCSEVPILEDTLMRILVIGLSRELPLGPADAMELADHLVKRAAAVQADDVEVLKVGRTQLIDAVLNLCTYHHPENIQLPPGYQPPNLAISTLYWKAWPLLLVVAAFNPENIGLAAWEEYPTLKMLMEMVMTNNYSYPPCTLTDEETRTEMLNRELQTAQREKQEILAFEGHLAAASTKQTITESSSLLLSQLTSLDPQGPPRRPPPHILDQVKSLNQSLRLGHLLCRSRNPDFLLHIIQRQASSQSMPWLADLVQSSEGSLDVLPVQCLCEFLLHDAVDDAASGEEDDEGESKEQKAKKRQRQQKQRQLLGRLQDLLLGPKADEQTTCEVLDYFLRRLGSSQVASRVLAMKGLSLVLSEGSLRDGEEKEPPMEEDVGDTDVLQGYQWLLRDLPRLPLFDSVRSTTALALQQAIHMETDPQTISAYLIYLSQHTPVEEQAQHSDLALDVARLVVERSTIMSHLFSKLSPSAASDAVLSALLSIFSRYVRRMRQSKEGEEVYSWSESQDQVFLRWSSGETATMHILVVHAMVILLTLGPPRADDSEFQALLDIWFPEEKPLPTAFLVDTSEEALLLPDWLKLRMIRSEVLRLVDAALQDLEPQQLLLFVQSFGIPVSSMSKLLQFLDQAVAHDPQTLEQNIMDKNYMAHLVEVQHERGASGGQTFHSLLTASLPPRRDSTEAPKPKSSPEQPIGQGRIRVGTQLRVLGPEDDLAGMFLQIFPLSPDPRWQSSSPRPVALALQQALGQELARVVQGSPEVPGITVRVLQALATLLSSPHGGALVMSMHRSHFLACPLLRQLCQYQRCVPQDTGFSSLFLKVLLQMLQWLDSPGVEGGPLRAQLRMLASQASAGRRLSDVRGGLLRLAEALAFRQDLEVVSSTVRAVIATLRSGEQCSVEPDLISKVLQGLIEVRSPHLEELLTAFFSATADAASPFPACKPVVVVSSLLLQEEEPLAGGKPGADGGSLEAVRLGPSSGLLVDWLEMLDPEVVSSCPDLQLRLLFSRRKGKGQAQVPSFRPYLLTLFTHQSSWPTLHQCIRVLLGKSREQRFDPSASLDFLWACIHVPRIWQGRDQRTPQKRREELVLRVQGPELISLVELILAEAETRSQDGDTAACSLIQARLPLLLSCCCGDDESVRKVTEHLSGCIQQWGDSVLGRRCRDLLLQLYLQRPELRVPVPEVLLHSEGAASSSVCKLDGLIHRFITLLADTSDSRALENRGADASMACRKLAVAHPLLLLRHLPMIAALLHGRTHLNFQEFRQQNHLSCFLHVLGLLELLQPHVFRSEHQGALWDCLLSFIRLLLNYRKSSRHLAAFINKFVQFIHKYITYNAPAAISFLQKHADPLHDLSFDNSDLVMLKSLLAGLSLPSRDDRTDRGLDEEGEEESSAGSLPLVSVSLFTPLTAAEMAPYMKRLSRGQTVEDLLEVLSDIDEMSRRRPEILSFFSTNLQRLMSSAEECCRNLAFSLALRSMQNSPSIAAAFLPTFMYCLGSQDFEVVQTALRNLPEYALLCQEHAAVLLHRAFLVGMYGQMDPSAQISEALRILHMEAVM
UniProt Q96AB3: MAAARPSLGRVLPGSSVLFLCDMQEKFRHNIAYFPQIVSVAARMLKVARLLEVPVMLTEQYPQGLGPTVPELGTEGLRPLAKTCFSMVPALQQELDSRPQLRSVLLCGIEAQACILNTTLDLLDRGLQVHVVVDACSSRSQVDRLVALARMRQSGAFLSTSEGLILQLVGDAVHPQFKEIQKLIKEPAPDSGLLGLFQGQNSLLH
UniProt Q9UL03, whole entry, looked up: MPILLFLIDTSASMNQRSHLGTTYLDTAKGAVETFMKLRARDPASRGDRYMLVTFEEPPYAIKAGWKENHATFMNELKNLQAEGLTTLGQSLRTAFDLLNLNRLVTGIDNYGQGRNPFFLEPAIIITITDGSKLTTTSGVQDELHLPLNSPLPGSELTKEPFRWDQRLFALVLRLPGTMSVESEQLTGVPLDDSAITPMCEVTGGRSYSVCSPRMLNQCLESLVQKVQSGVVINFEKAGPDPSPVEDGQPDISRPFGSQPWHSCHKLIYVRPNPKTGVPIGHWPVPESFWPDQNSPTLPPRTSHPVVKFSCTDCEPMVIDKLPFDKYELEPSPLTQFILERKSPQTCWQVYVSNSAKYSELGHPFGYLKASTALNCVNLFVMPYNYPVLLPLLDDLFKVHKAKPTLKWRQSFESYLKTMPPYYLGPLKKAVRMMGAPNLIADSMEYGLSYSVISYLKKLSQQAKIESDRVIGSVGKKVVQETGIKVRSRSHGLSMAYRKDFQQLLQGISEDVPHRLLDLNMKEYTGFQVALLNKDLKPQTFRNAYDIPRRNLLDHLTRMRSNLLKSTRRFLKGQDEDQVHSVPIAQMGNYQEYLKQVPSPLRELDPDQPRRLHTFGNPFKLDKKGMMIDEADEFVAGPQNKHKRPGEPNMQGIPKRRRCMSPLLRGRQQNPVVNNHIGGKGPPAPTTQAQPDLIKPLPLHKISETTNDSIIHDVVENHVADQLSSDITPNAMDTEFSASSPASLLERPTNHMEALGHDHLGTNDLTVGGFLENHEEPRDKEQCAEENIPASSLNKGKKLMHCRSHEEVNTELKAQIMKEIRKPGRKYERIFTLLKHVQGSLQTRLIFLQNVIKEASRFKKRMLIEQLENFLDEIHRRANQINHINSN
UniProt Q8IU81: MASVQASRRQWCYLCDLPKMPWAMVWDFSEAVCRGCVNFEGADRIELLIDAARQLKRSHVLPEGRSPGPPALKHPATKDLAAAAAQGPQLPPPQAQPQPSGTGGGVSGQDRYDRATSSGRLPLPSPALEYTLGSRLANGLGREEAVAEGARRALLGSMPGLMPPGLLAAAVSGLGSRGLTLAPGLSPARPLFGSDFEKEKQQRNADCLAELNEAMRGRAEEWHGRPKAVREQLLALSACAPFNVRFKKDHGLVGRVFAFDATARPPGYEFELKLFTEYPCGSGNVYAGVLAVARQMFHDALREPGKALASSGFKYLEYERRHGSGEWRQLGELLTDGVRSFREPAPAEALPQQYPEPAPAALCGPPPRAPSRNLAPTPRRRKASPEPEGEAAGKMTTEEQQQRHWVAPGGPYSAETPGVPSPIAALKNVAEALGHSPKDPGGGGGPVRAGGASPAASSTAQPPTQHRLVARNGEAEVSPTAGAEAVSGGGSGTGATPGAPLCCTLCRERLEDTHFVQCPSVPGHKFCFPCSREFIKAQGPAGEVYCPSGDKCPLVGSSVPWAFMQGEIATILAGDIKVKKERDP

Compound: Cc1cc(ccc1-c1ccccc1)C(=O)N1CCCN(CC1)C(=O)CCl [compound 10]
Test: probe-labelled cysteine peptide fold change vs DMSO (competition) (log2 fold change); higher = less target engagement (more negative = stronger competition)
Settings: THP-1, incubation time: 4 h
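Also: competitive profiling in live THP-1 cells: cysteine peptides tagged with an iodoacetamide desthiobiotin (IA-DTB) probe, intensity after compound treatment relative to DMSO-treated cells.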

Target | probe-labelled cysteine peptide fold change (10 µM) | probe-labelled cysteine peptide fold change (50 µM)
ITGB1_P05556_516_HCECSTDEVNSEDMDAYCR (UniProt P05556) | -0.0789 | -0.275
INTS13_Q9NVM9_202_CELVLIHTYPVGEDSLVSDR (UniProt Q9NVM9) | 0.128 | 0.231
IPO7_O95373_484_ACWVLHYFCEVK (UniProt O95373) | 0.00704 | 0.576
IPO8_O15397_827_IQLPHNPGPITVQFINQWMNDTDCFLGHHDR (UniProt O15397) | 0.203 | 0.407
IPO7_O95373_477_ACWVLHYFCEVK (UniProt O95373) | -0.562 | 0.827
IQGAP1_P46940_524_AQAHAENNEFITWNDIQACVDHVNLVVQEEHER (UniProt P46940) | 0.181 | 0.213
INTS1_Q8N201_1534_SGEQCSVEPDLISK (UniProt Q8N201) | 0.025 | 0.0044
ISOC2_Q96AB3_21_VLPGSSVLFLCDMQEK (UniProt Q96AB3) | -0.115 | 0.0895
INTS6_Q9UL03_347_KSPQTCWQVYVSNSAK (UniProt Q9UL03) | 0.118 | -0.0141
IPO7_O95373_736_KVLTGVAGEDAECHAAK (UniProt O95373) | -0.142 | -0.403
INTS1_Q8N201_611_DYVHCLHK (UniProt Q8N201) | 0.209 | 0.134
IRF2BP1_Q8IU81_546_AQGPAGEVYCPSGDK (UniProt Q8IU81) | -0.0635 | -0.049
ITGB2_P05107_472_CDTGYIGK (UniProt P05107) | 0.101 | -0.117
INTS11_Q5TA45_542_DHCVQHLPDGSVTVESVLLQAAAPSEDPGTK (UniProt Q5TA45) | -0.12 | -0.115

Random excerpt: two records from the list
Target | probe-labelled cysteine peptide fold change (10 µM) | probe-labelled cysteine peptide fold change (50 µM)
IPO8_O15397_827_IQLPHNPGPITVQFINQWMNDTDCFLGHHDR (UniProt O15397) | 0.203 | 0.407
IQGAP1_P46940_524_AQAHAENNEFITWNDIQACVDHVNLVVQEEHER (UniProt P46940) | 0.181 | 0.213
